Laboratory results as given in the supplement of paper PMC12823440, “Inhibitors supercharge kinase turnover through native proteolytic circuits” (Nature, 2025).
Counter-ions that a name gives are not always drawn. This is one part of the list. Hit calls seldom repeat between salt and free forms of one compound.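 Kinases, fused to nanoluciferase, were expressed in K562 cells; luminescence was measured every 4 h from 2 to 18 h as percent of control (DMSO = 100%, positive control = 0%). A time point is decreased if signal falls significantly (2 sigma). Hits were called by the authors by a rule that is not shown; the count of time points alone does not decide it.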

Protein sequences, listed by entry. Tags and fused reporters are not part of them. Lines headed by an entry give the natural chain unless they say otherwise; changes in a name come on top.
UniProt O15530: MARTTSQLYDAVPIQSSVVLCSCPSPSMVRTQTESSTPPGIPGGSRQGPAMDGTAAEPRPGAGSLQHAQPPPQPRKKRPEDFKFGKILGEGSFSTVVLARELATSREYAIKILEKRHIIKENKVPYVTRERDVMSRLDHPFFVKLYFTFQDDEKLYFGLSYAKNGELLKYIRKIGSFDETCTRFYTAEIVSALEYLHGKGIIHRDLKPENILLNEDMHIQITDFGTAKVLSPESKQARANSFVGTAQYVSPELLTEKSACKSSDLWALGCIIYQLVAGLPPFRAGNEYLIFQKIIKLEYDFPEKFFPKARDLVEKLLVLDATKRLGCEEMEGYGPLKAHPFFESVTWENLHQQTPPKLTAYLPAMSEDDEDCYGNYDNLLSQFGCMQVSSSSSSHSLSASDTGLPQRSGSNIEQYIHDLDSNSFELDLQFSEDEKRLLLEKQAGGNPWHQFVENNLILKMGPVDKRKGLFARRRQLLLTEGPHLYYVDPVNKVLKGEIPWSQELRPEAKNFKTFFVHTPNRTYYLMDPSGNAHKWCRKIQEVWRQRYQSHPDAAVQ
UniProt P42356, whole entry, looked up: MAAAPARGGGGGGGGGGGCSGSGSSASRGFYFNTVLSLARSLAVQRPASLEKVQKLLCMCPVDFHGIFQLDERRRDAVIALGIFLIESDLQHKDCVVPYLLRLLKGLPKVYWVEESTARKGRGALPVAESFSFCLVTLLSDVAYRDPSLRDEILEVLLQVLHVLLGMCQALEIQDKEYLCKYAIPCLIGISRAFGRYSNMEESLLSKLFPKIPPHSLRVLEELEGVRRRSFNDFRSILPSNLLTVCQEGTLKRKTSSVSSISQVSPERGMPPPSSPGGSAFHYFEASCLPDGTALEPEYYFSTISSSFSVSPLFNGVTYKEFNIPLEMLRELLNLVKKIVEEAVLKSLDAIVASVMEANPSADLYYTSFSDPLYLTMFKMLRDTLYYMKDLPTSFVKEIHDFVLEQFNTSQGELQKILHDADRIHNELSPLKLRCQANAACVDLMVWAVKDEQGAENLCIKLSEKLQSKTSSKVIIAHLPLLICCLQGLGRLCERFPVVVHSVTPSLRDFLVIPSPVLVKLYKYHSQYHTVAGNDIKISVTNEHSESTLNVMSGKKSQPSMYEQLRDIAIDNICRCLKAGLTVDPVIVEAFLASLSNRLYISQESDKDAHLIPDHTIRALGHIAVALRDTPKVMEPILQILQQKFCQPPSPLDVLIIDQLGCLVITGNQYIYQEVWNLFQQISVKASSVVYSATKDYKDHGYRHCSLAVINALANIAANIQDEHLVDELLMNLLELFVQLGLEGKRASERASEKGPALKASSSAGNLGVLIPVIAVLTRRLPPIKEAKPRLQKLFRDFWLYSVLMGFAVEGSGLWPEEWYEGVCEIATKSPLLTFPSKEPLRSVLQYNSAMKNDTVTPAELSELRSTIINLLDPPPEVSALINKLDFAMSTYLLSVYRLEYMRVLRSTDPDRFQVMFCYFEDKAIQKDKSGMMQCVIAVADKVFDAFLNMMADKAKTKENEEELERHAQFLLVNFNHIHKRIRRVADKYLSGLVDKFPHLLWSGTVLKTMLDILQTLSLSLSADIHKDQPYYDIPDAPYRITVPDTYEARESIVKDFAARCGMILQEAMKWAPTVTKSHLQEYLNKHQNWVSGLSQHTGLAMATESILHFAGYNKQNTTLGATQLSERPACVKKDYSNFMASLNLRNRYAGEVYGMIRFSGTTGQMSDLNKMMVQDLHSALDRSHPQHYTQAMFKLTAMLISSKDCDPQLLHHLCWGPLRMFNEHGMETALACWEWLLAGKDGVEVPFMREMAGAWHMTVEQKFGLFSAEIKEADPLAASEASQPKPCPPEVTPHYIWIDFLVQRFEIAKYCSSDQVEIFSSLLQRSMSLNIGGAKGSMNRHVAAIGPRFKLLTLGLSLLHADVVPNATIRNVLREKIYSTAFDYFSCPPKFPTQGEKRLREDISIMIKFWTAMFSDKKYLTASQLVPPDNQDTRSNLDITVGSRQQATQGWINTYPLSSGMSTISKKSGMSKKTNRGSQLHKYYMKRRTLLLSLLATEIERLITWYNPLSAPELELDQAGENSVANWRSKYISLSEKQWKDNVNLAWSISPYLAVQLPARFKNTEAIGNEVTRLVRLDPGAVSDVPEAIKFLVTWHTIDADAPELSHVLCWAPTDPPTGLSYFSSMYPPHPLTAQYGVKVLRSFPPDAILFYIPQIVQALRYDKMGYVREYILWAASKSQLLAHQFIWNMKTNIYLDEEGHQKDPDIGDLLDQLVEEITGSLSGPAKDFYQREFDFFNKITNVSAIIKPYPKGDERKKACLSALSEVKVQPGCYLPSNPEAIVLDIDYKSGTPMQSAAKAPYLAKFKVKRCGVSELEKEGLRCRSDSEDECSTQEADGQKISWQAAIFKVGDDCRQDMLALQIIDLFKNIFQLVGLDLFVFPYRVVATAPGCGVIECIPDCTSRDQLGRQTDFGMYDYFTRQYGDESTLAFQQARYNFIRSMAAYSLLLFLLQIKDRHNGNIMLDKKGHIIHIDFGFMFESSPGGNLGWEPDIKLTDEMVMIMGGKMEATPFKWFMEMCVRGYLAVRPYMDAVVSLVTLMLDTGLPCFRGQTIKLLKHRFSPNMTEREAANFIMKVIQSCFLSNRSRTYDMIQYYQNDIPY
UniProt P53350, whole entry: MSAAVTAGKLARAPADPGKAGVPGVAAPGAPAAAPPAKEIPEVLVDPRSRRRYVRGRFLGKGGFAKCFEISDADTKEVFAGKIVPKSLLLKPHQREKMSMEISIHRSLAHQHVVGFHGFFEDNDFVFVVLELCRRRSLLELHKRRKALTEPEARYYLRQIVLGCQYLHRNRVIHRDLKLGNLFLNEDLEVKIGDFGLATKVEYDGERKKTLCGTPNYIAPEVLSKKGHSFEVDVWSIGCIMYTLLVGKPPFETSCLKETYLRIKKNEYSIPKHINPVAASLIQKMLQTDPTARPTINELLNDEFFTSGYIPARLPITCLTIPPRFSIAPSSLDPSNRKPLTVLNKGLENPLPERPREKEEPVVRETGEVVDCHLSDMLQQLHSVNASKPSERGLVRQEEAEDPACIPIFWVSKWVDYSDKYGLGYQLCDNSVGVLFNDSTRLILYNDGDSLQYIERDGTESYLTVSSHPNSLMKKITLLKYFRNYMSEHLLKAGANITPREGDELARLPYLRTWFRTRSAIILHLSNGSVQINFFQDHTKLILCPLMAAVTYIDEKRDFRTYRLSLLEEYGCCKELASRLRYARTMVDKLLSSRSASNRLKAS
UniProt Q13546: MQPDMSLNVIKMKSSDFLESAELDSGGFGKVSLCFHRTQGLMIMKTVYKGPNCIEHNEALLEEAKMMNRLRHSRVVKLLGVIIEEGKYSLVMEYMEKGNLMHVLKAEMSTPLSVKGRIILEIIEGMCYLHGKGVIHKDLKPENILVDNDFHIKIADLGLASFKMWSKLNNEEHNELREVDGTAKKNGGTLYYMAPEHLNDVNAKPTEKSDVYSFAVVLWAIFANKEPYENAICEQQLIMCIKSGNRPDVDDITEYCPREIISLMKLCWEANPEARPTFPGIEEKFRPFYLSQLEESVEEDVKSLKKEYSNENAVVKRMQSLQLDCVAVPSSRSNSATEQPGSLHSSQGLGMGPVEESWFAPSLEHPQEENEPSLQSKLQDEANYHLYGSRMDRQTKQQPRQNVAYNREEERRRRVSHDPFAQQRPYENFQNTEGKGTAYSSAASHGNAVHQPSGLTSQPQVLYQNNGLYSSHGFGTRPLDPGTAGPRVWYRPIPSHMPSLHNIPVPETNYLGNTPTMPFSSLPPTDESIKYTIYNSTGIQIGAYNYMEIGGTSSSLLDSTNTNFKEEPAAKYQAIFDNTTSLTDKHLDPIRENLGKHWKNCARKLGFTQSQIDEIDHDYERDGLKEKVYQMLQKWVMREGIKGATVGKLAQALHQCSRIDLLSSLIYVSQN
UniProt Q01974, whole entry: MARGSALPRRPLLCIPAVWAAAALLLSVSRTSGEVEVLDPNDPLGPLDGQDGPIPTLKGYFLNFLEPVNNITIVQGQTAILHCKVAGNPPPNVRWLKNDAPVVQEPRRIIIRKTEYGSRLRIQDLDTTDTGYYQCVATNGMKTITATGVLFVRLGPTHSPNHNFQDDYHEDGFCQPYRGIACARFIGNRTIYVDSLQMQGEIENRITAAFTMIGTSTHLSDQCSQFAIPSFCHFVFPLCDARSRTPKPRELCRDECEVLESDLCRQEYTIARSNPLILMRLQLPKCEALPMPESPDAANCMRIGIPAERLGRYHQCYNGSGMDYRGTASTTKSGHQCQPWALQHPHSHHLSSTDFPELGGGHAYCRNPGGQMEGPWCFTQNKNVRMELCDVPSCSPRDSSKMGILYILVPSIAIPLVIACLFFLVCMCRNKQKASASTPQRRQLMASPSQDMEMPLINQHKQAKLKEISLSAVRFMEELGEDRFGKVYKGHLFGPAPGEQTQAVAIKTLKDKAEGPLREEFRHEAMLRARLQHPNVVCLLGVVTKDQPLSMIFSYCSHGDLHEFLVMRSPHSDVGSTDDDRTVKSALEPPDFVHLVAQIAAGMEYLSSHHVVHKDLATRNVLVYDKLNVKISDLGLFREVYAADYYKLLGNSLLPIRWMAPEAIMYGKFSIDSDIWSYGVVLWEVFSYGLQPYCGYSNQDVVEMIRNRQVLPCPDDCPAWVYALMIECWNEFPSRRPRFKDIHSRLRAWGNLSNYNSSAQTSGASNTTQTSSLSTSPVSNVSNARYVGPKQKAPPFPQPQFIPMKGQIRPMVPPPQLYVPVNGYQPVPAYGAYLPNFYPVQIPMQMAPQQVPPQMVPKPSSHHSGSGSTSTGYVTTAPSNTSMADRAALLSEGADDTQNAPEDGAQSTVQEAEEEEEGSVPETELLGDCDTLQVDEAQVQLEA
UniProt Q9NYA1, whole entry: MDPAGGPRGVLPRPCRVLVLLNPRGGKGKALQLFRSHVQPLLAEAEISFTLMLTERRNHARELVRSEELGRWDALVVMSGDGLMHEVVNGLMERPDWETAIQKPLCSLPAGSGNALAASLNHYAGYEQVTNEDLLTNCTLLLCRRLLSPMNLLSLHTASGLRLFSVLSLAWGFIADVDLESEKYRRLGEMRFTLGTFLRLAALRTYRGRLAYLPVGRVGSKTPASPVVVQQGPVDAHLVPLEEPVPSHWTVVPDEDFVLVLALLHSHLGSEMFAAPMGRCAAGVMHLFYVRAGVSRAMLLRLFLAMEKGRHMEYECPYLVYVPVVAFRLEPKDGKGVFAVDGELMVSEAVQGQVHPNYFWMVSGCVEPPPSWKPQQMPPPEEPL
UniProt P07949, whole entry, looked up: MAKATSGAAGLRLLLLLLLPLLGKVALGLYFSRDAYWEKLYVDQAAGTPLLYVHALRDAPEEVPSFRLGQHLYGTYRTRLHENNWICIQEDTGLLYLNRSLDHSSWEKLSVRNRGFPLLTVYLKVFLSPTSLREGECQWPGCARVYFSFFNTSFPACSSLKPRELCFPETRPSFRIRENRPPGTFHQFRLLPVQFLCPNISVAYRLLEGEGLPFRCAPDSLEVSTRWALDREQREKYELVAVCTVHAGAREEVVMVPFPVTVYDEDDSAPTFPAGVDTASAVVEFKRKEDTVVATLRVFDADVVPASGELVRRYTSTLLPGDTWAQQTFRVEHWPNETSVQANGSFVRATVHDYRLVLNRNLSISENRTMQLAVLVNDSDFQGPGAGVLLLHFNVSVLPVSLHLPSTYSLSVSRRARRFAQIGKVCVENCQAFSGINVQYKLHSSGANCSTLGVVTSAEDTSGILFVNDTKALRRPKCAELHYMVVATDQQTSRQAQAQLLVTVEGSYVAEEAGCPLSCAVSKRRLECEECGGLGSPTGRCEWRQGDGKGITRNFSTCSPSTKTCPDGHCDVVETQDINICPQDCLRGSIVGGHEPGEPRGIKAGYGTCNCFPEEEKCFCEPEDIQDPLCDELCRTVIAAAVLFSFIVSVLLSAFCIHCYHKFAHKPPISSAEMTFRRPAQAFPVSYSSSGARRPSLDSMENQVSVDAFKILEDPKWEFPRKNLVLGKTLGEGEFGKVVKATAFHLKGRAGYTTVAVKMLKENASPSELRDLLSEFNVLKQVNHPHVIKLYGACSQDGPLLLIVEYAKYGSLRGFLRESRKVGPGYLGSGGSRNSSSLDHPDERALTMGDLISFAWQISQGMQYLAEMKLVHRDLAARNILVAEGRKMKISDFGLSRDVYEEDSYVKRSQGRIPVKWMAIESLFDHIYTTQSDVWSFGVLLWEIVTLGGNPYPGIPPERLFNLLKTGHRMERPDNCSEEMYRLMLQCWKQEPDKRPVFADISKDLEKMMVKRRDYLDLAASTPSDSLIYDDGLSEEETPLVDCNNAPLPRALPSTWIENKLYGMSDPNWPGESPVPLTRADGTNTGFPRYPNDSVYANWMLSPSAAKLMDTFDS

Columns and labels:
Assay in all cases: kinase-Nluc reporter destabilization hit call (1 = scored as downregulated) (binary); higher = compound decreases kinase abundance
Details in all cases: K562, 2-18 h
PDPK1 = PDPK1 (UniProt O15530)
PIK4CA = PIK4CA (UniProt P42356)
PIK4CB = PIK4CB (UniProt Q9UBF8)
PLK1 = PLK1 (UniProt P53350)
PRKAA1 = PRKAA1 (UniProt Q13131)
PRKCA = PRKCA (UniProt P17252)
PTK2 = PTK2 (UniProt Q05397)
PTK2B = PTK2B (UniProt Q14289)
RAF1 = RAF1 (UniProt P04049)
[1] = biological target: RAF1_S257L (clone: RAF1_mut) (UniProt P04049)
RIOK1 = RIOK1 (UniProt Q9BRS2)
RIPK1 = RIPK1 (UniProt Q13546)
RIPK2 = RIPK2 (UniProt O43353)
ROR2 = ROR2 (UniProt Q01974)
RPS6KA1 = RPS6KA1 (UniProt Q15418)
SPHK1 = SPHK1 (UniProt Q9NYA1)
SRC = SRC (UniProt P12931)
STK24 = STK24 (UniProt Q9Y6E0)
RET = RET (UniProt P07949)
[2] = biological target: RET_M918T (clone: RET_mut) (UniProt P07949)

Measured: kinase-Nluc reporter destabilization hit call

N#CC[C@H](C1CCCC1)n1cc(-c2ncnc3[nH]ccc23)cn1 [Ruxolitinib]
inactive: PDPK1; 10 µM 0 | PIK4CA; 10 µM 0 | PIK4CB; 10 µM 0 | PLK1; 10 µM 0 | PRKAA1; 10 µM 0 | PRKCA; 10 µM 0 | PTK2; 10 µM 0 | PTK2B; 10 µM 0 | RAF1; 10 µM 0 | [1]; 10 µM 0 | RIOK1; 10 µM 0 | RIPK1; 10 µM 0 | RIPK2; 10 µM 0 | ROR2; 10 µM 0 | RPS6KA1; 10 µM 0 | SPHK1; 10 µM 0 | SRC; 10 µM 0 | STK24; 10 µM 0

c1cc(-c2cnn3cc(-c4ccc(OCCN5CCCCC5)cc4)cnc23)ccn1 [Dorsomorphin (dihydrochloride)]
inactive: PDPK1; 2.5 µM 0 | PIK4CA; 2.5 µM 0 | PIK4CB; 2.5 µM 0 | PLK1; 2.5 µM 0 | PRKAA1; 2.5 µM 0 | PRKCA; 2.5 µM 0 | PTK2; 2.5 µM 0 | PTK2B; 2.5 µM 0 | RAF1; 2.5 µM 0 | [1]; 2.5 µM 0 | RET; 2.5 µM 0 | [2]; 2.5 µM 0 | RIOK1; 2.5 µM 0 | RIPK1; 2.5 µM 0 | RIPK2; 2.5 µM 0 | ROR2; 2.5 µM 0 | RPS6KA1; 2.5 µM 0 | SPHK1; 2.5 µM 0 | SRC; 2.5 µM 0 | STK24; 2.5 µM 0

COc1cc2nccc(Oc3ccc(NC(=O)C4(C(=O)Nc5ccc(F)cc5)CC4)cc3)c2cc1OC [Cabozantinib]
inactive: PDPK1; 2.5 µM 0 | PIK4CA; 2.5 µM 0 | PIK4CB; 2.5 µM 0 | PLK1; 2.5 µM 0 | PRKAA1; 2.5 µM 0 | PRKCA; 2.5 µM 0 | PTK2; 2.5 µM 0 | PTK2B; 2.5 µM 0 | RAF1; 2.5 µM 0 | [1]; 2.5 µM 0 | RET; 2.5 µM 0 | [2]; 2.5 µM 0 | RIOK1; 2.5 µM 0 | RIPK1; 2.5 µM 0 | RIPK2; 2.5 µM 0 | ROR2; 2.5 µM 0 | RPS6KA1; 2.5 µM 0 | SPHK1; 2.5 µM 0 | SRC; 2.5 µM 0 | STK24; 2.5 µM 0

CN1CCCN(C(=O)c2cccc(-c3ccc(/C=C4/C(=O)Nc5ccc(Cl)cc54)o3)c2)CC1
inactive: PDPK1; 2.5 µM 0 | PIK4CA; 2.5 µM 0 | PIK4CB; 2.5 µM 0 | PLK1; 2.5 µM 0 | PRKAA1; 2.5 µM 0 | PRKCA; 2.5 µM 0 | PTK2; 2.5 µM 0 | PTK2B; 2.5 µM 0 | RAF1; 2.5 µM 0 | [1]; 2.5 µM 0 | RET; 2.5 µM 0 | [2]; 2.5 µM 0 | RIOK1; 2.5 µM 0 | RIPK1; 2.5 µM 0 | RIPK2; 2.5 µM 0 | ROR2; 2.5 µM 0 | RPS6KA1; 2.5 µM 0 | SPHK1; 2.5 µM 0 | SRC; 2.5 µM 0 | STK24; 2.5 µM 0

CC(=O)N[C@H](Cc1ccc(O)cc1)C(=O)N[C@H](CCCN=C(N)N)C(=O)N[C@H](Cc1ccccc1)C(N)=O
inactive: PDPK1; 10 µM 0 | PIK4CA; 10 µM 0 | PIK4CB; 10 µM 0 | PLK1; 10 µM 0 | PRKAA1; 10 µM 0 | PRKCA; 10 µM 0 | PTK2; 10 µM 0 | PTK2B; 10 µM 0 | RAF1; 10 µM 0 | [1]; 10 µM 0 | RET; 10 µM 0 | [2]; 10 µM 0 | RIOK1; 10 µM 0 | RIPK1; 10 µM 0 | RIPK2; 10 µM 0 | ROR2; 10 µM 0 | RPS6KA1; 10 µM 0 | SPHK1; 10 µM 0 | SRC; 10 µM 0 | STK24; 10 µM 0

Cc1nc2ccc(-n3c(-c4nonc4N)nc4cnccc43)cc2[nH]1
inactive: PDPK1; 10 µM 0 | PIK4CA; 10 µM 0 | PIK4CB; 10 µM 0 | PLK1; 10 µM 0 | PRKAA1; 10 µM 0 | PRKCA; 10 µM 0 | PTK2; 10 µM 0 | PTK2B; 10 µM 0 | RAF1; 10 µM 0 | [1]; 10 µM 0 | RET; 10 µM 0 | [2]; 10 µM 0 | RIOK1; 10 µM 0 | RIPK1; 10 µM 0 | RIPK2; 10 µM 0 | ROR2; 10 µM 0 | RPS6KA1; 10 µM 0 | SPHK1; 10 µM 0 | SRC; 10 µM 0 | STK24; 10 µM 0

Cn1ncc(Cl)c1-c1cc(C(=O)N[C@H](CN)Cc2cccc(F)c2)sc1Cl [Afuresertib (hydrochloride)]
inactive: PDPK1; 10 µM 0 | PIK4CA; 10 µM 0 | PIK4CB; 10 µM 0 | PLK1; 10 µM 0 | PRKAA1; 10 µM 0 | PRKCA; 10 µM 0 | PTK2; 10 µM 0 | PTK2B; 10 µM 0 | RAF1; 10 µM 0 | [1]; 10 µM 0 | RET; 10 µM 0 | [2]; 10 µM 0 | RIOK1; 10 µM 0 | RIPK1; 10 µM 0 | RIPK2; 10 µM 0 | ROR2; 10 µM 0 | RPS6KA1; 10 µM 0 | SPHK1; 10 µM 0 | SRC; 10 µM 0 | STK24; 10 µM 0

C/C=C1\C(=O)C[C@H]2[C@@H]3CCC4=CC(=O)CC[C@]4(C)[C@H]3CC[C@]12C [Guggulsterone]
inactive: PDPK1; 10 µM 0 | PIK4CA; 10 µM 0 | PIK4CB; 10 µM 0 | PRKAA1; 10 µM 0 | PRKCA; 10 µM 0 | PTK2; 10 µM 0 | PTK2B; 10 µM 0 | RAF1; 10 µM 0 | [1]; 10 µM 0 | RET; 10 µM 0 | [2]; 10 µM 0 | RIOK1; 10 µM 0 | RIPK1; 10 µM 0 | RIPK2; 10 µM 0 | ROR2; 10 µM 0 | RPS6KA1; 10 µM 0 | SPHK1; 10 µM 0 | SRC; 10 µM 0 | STK24; 10 µM 0

COc1cc2c(cc1OC)-c1c(C)c3ccc(OC)c(OC)c3c[n+]1CC2 [Dehydrocorydaline]
inactive: PDPK1; 10 µM 0 | PIK4CA; 10 µM 0 | PIK4CB; 10 µM 0 | PLK1; 10 µM 0 | PRKAA1; 10 µM 0 | PRKCA; 10 µM 0 | PTK2; 10 µM 0 | PTK2B; 10 µM 0 | RAF1; 10 µM 0 | [1]; 10 µM 0 | RET; 10 µM 0 | [2]; 10 µM 0 | RIOK1; 10 µM 0 | RIPK1; 10 µM 0 | RIPK2; 10 µM 0 | ROR2; 10 µM 0 | RPS6KA1; 10 µM 0 | SPHK1; 10 µM 0 | SRC; 10 µM 0 | STK24; 10 µM 0

Compounds above with an aryl methoxy group:
COc1cc2nccc(Oc3ccc(NC(=O)C4(C(=O)Nc5ccc(F)cc5)CC4)cc3)c2cc1OC [Cabozantinib]
inactive: PDPK1; 2.5 µM 0 | PIK4CA; 2.5 µM 0 | PIK4CB; 2.5 µM 0 | PLK1; 2.5 µM 0 | PRKAA1; 2.5 µM 0 | PRKCA; 2.5 µM 0 | PTK2; 2.5 µM 0 | PTK2B; 2.5 µM 0 | RAF1; 2.5 µM 0 | [1]; 2.5 µM 0 | RET; 2.5 µM 0 | [2]; 2.5 µM 0 | RIOK1; 2.5 µM 0 | RIPK1; 2.5 µM 0 | RIPK2; 2.5 µM 0 | ROR2; 2.5 µM 0 | RPS6KA1; 2.5 µM 0 | SPHK1; 2.5 µM 0 | SRC; 2.5 µM 0 | STK24; 2.5 µM 0

COc1cc2c(cc1OC)-c1c(C)c3ccc(OC)c(OC)c3c[n+]1CC2 [Dehydrocorydaline]
inactive: PDPK1; 10 µM 0 | PIK4CA; 10 µM 0 | PIK4CB; 10 µM 0 | PLK1; 10 µM 0 | PRKAA1; 10 µM 0 | PRKCA; 10 µM 0 | PTK2; 10 µM 0 | PTK2B; 10 µM 0 | RAF1; 10 µM 0 | [1]; 10 µM 0 | RET; 10 µM 0 | [2]; 10 µM 0 | RIOK1; 10 µM 0 | RIPK1; 10 µM 0 | RIPK2; 10 µM 0 | ROR2; 10 µM 0 | RPS6KA1; 10 µM 0 | SPHK1; 10 µM 0 | SRC; 10 µM 0 | STK24; 10 µM 0

Following part

Cn1cc(-c2cnc3ccc4ccc(CS(=O)(=O)NCc5ccccn5)cc4c(=O)c3c2)cn1
inactive: PDPK1; 10 µM 0 | PIK4CA; 10 µM 0 | PIK4CB; 10 µM 0 | PLK1; 10 µM 0 | PRKAA1; 10 µM 0 | PRKCA; 10 µM 0 | PTK2; 10 µM 0 | PTK2B; 10 µM 0 | RAF1; 10 µM 0 | [1]; 10 µM 0 | RET; 10 µM 0 | [2]; 10 µM 0 | RIOK1; 10 µM 0 | RIPK1; 10 µM 0 | RIPK2; 10 µM 0 | ROR2; 10 µM 0 | RPS6KA1; 10 µM 0 | SPHK1; 10 µM 0 | SRC; 10 µM 0 | STK24; 10 µM 0

N#CCC1(n2cc(-c3ncnc4[nH]ccc34)cn2)CN(C2CCN(C(=O)c3ccnc(C(F)(F)F)c3F)CC2)C1 [Itacitinib]
inactive: PDPK1; 10 µM 0 | PIK4CA; 10 µM 0 | PIK4CB; 10 µM 0 | PLK1; 10 µM 0 | PRKAA1; 10 µM 0 | PRKCA; 10 µM 0 | PTK2; 10 µM 0 | PTK2B; 10 µM 0 | RAF1; 10 µM 0 | [1]; 10 µM 0 | RET; 10 µM 0 | [2]; 10 µM 0 | RIOK1; 10 µM 0 | RIPK1; 10 µM 0 | RIPK2; 10 µM 0 | ROR2; 10 µM 0 | RPS6KA1; 10 µM 0 | SPHK1; 10 µM 0 | SRC; 10 µM 0 | STK24; 10 µM 0

CCc1nc(C(N)=O)c(Nc2ccc(N3CCC(N4CCN(C)CC4)CC3)c(OC)c2)nc1NC1CCOCC1 [Gilteritinib]
inactive: PDPK1; 2 µM 0 | PIK4CA; 2 µM 0 | PIK4CB; 2 µM 0 | PLK1; 2 µM 0 | PRKAA1; 2 µM 0 | PTK2; 2 µM 0 | PTK2B; 2 µM 0 | RAF1; 2 µM 0 | [1]; 2 µM 0 | RET; 2 µM 0 | [2]; 2 µM 0 | RIOK1; 2 µM 0 | RIPK1; 2 µM 0 | RIPK2; 2 µM 0 | ROR2; 2 µM 0 | RPS6KA1; 2 µM 0 | SPHK1; 2 µM 0 | SRC; 2 µM 0 | STK24; 2 µM 0
